Test results published in article PMC10167995.

Protein sequences, listed by entry. Tags and fused reporters are not part of them. Lines headed by an entry give the natural chain unless they say otherwise; changes in a name come on top.
UniProt G5ECA1: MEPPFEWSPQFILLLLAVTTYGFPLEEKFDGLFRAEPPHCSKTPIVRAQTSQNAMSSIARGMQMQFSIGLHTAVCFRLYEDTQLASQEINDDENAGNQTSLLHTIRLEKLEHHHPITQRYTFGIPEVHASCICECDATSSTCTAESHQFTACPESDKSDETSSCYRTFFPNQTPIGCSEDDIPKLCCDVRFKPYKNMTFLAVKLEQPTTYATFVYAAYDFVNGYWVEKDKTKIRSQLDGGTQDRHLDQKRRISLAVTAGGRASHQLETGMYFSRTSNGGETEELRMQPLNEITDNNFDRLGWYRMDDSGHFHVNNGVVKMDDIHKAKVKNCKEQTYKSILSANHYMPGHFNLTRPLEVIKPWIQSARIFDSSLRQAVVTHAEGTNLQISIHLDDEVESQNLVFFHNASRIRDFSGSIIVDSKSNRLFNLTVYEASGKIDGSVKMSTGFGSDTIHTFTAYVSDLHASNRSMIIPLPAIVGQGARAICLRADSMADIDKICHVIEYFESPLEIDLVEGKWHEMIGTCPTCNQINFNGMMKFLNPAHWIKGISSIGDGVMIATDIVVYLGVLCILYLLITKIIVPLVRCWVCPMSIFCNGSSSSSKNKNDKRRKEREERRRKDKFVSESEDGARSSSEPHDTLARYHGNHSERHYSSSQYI

Target: T1, DYN-1A tagged with FLAG (DYN-1-3xFLAG) (C. elegans) (UniProt P39055)
T1 sequence: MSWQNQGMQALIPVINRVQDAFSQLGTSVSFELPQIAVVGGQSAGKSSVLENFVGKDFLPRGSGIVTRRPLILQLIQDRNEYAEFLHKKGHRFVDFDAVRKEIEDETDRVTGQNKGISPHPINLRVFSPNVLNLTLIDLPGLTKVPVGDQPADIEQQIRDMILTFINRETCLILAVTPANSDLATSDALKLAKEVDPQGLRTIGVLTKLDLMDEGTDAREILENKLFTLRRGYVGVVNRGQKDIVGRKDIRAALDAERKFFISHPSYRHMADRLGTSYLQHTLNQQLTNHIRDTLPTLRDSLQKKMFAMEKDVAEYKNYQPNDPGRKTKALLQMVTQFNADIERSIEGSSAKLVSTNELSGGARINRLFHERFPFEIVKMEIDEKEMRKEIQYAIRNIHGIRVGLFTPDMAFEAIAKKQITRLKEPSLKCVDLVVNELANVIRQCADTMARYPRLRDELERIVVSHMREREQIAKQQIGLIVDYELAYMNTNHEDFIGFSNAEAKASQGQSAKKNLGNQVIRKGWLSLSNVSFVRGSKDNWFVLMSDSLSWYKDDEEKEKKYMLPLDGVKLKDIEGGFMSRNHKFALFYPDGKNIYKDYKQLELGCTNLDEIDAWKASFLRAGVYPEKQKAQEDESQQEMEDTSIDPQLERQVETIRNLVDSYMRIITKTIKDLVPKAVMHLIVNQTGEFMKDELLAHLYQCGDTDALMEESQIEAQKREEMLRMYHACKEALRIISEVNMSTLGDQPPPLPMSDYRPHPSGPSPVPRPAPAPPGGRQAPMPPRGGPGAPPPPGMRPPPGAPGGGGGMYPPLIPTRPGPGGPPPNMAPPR
Experiment: co-IP; HEK293T cells transfected with DYN-1-3xFLAG and/or EFF-1A-eGFP; lysed in RIPA buffer 24 h after transfection; IP with anti-FLAG M2 agarose beads 3-4 h at 4°C, four washes with RIPA; immunoblot with anti-GFP; blot of one experiment

- binding: binds
Substance: EFF-1A tagged with GFP (EFF-1A-eGFP) (from UniProt G5ECA1)

No constants are given. Whether binding was seen depends on the method and setting. In cells and extracts the contact can be indirect. Binding can be weak; no strength is given. Where a sequence is shown, tags or fusion partners need not be part of it.
